Results reported in article PMC11873240.

Key:
[1] = biological target: T1, Phospholipase C β4 (mouse (endogenous in BMMs and preosteoclasts)) (UniProt Q91UZ1); test: co-IP; lysate of preosteoclasts (50 mM Tris-HCl pH 7.4, 150 mM NaCl, 1% Nonidet P-40, 1 mM EDTA); IP with anti-PLCβ4 antibody or normal mouse IgG, Sepharose A beads; immunoblot with anti-p38 and anti-PLCβ4
T1 sequence: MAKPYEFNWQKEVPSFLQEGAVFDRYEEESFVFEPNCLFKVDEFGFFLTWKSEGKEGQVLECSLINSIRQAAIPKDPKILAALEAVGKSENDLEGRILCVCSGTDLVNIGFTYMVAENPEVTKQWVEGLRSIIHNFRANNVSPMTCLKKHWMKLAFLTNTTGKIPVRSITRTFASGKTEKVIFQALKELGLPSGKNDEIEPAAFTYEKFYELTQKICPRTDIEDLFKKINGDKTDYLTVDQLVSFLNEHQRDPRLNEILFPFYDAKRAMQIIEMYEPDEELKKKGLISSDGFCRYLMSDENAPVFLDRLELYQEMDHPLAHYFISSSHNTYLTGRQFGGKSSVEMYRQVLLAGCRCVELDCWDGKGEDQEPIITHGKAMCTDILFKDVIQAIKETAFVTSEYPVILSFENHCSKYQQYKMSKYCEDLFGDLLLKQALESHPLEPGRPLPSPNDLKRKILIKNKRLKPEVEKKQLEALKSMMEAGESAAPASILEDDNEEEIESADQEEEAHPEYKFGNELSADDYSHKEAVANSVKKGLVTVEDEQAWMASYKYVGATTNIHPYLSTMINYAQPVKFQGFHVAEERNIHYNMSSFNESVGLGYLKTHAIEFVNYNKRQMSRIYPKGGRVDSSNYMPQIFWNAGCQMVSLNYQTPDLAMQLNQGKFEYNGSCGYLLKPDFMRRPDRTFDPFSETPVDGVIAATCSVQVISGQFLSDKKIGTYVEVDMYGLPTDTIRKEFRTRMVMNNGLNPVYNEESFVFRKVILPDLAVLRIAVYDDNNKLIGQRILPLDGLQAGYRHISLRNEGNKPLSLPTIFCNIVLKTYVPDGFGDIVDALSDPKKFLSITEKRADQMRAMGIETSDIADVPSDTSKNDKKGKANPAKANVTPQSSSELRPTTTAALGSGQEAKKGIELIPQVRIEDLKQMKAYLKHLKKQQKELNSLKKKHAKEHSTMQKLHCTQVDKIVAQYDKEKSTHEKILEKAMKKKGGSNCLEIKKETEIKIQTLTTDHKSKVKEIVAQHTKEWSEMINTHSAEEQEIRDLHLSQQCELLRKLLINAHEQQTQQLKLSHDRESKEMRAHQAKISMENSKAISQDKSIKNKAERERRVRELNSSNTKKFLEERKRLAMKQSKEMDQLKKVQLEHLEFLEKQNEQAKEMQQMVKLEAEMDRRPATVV

[2] = biological target: T1, Phospholipase C β4 (mouse (endogenous in BMMs and preosteoclasts)); test: co-IP; lysate of serum- and cytokine-starved BMMs stimulated with RANKL (50 ng/ml) for the indicated times; IP with anti-PLCβ4 antibody; immunoblot with anti-MKK3, anti-p38 and anti-PLCβ4

binding [1]: binds
binding [2]: binds
Substance: p38 mitogen-activated protein kinase (enzyme)

Results are given in words; binding and its absence hold for the method and conditions named. Binding seen in cells or lysates may run through a third protein. Binding can be weak; no strength is given.
